Where “and” joins values, the source holds several entries; their conditions need not be identical. Equal values may be shown once. Among all 580,000 compounds or so, about 6,100 (1.1%) were called active. This list was built around the results that the source calls inconclusive (neither active nor inactive); the mix of calls is not that of the screen. Calls come from the whole dose curve; as a rule, active = well fitted inhibition curve with a large enough effect; inconclusive = small, poorly fitted or top-dose-only effect, or another doubt; inactive = no such curve, though single readings can be large or run the other way. Potencies of inconclusive entries are doubtful fits and often do not repeat.
Molecular target: Polyunsaturated fatty acid lipoxygenase ALOX12 (Homo sapiens) (UniProt P18054)
Assay: Primary qHTS assay for inhibitors of human arachidonate 12S-lipoxygenase (ALOX12): Round 2
Conditions: purified 12hLO, xylenol orange hydroperoxide absorbance; activity change, negative = inhibition: at 108 µM (top of the series) unless noted
How it was run: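 Purified human 12hLO (150 nM final) in 25 mM Hepes, 0.01% Triton X-100, pH 7.0 was preincubated 15 min at room temperature with compound. Then 40 uM arachidonic acid was added, 30 min. Hydroperoxide was read by Fe-XO absorbance ratio 573/405 nm.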
% is set by controls: 0 for no effect and ±100 for the full control effect; potency is the fitted concentration of half-maximal effect.

Protein sequences, listed by entry. Tags and fused reporters are not part of them. Lines headed by an entry give the natural chain unless they say otherwise; changes in a name come on top.
UniProt P18054: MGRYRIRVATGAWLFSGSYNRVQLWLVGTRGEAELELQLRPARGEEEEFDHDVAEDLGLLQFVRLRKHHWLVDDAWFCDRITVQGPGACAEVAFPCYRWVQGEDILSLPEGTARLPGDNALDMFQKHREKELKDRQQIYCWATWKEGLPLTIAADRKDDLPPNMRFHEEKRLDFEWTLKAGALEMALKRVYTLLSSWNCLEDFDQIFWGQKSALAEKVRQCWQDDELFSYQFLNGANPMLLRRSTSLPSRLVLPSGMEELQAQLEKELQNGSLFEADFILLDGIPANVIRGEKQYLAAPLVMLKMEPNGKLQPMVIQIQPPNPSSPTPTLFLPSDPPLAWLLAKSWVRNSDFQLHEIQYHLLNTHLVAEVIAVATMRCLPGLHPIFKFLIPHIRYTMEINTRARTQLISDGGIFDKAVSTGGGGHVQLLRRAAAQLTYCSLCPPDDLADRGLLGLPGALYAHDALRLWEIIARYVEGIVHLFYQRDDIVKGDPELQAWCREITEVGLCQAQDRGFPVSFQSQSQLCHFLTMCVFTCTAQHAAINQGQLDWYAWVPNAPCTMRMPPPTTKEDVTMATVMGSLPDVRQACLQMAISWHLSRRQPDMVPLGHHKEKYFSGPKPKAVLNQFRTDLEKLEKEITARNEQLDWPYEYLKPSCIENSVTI

Q: `CCN(CC)CCCC(C)Nc1nc(C)cc(Nc2ccc3nc(C)cc(N)c3c2)n1` (configuration not stated) was tested. Which Potency did it give?
A: inconclusive: 48.5 µM [inhibitor, single point]

Q: For `CCc1nc2c(=O)n(CC(=O)NCCC3=CCCCC3)nc(C)c2s1`, which Potency is on record?
A: inactive

Q: How did the Potency turn out when `Cc1[nH][nH]c(=O)c1C(c1ccc(OCc2c(F)cccc2Cl)cc1)c1c(C)[nH][nH]c1=O` was run?
A: inconclusive: 50.1 µM [inhibitor, partial curve, poor fit]

Q: For `C=CCN(C(=O)CCC(=O)O)C1CC(=O)N(c2ccc(OCCC)cc2)C1=O` (configuration not stated), which Potency is on record?
A: inactive

Q: How did the Potency turn out when `O=C(COC(=O)c1nc(Cl)ccc1Cl)c1ccccc1Cl` was run?
A: inconclusive: 39.8 µM [inhibitor, partial curve, poor fit]

Q: `CN(CCOc1ccc(Cl)cc1)CC(=O)Nc1ccc(OC(F)F)cc1` was tested. Which Potency did it give?
A: inactive

Q: How did the Potency turn out when `COc1cc(Br)cc(C=Nc2cccc(C(F)(F)F)c2)c1O` was run?
A: inactive

Q: Which Potency does the source give for `O=C(O)C1=CC[C@@H](c2ccc(Cl)cc2)N(S(=O)(=O)c2ccc(Cl)cc2)[C@H]1c1ccc(F)cc1` here?
A: inconclusive: 63.1 µM [inhibitor, partial curve, poor fit]

Q: For `CN(Cc1ccccc1)c1nc2c(c(=O)[nH]c(=O)n2C)n1Cc1ccccc1F`, which Potency is on record?
A: inconclusive: 0.199 µM [inhibitor, full curve, poor fit]

Q: How did the Potency turn out when `CN(C)S(=O)(=O)N1CCc2c(nc3cc(-c4ccccc4)[nH]n3c2=O)C1` was run?
A: inactive

Q: Which Potency does the source give for `COc1cccc(-c2nc(S(=O)(=O)c3ccc(C)cc3)c(NCc3ccccc3)o2)c1` here?
A: inconclusive: 89.1 µM [inhibitor, partial curve, poor fit]

Q: For `Nc1nc(O)c(Sc2ccccc2[N+](=O)[O-])c(=O)[nH]1`, which Potency is on record?
A: inconclusive: 79.4 µM [inhibitor, single point]

Q: `NC(Cc1ccc(C(F)(F)F)cc1)c1csc(NC(=O)NCCc2ccccc2)n1` (configuration not stated) was tested. Which Potency did it give?
A: inconclusive: 79.4 µM [inhibitor, partial curve, poor fit]

Q: Which Potency does the source give for `CCOc1ccc(-c2nc(CSCC(=O)NCCc3ccccc3)c(C)o2)cc1` here?
A: inactive

Q: With `Cc1ccc(C)c(N2CC(C(=O)OCC(=O)c3ccc(Br)cc3)CC2=O)c1` (configuration not stated) as the compound, how does the Potency read?
A: inconclusive: 112 µM [inhibitor, partial curve, poor fit]

Q: With `Cc1ccc(C(=O)NCC(=O)NCCc2ccc(S(N)(=O)=O)cc2)s1` as the compound, how does the Potency read?
A: inconclusive: 31.6 µM [inhibitor, partial curve, poor fit]

Q: How did the Potency turn out when `CC12CCC(C(=O)NCc3ccc4c(c3)OCO4)(C(=O)C1=O)C2(C)C` (configuration not stated) was run?
A: inactive

Q: With `CCN1CCN(c2cc(C)c3cc(NC(=O)c4cc(OC)c(OC)c(OC)c4)ccc3n2)CC1` as the compound, how does the Potency read?
A: inconclusive: 79.4 µM [inhibitor, partial curve, poor fit]

Q: `CC1Cc2nc(SCC(=O)N3CCCc4ccccc43)n(C)c(=O)c2S1` (configuration not stated) was tested. Which Potency did it give?
A: inconclusive: 126 µM [inhibitor, single point]

Q: `NNS(=O)(=O)c1ccc(Cc2ncc(C(F)(F)F)cc2Cl)s1` was tested. Which Potency did it give?
A: inactive

Q: For `Cc1cc(/C=N/NC(N)=S)c(C)n1-c1cccc(Cl)c1`, which Potency is on record?
A: active: 39.8 µM

Q: Which Potency does the source give for `O=C(c1c[nH]c(C(=O)C(Cl)(Cl)Cl)c1)c1ccc(F)cc1F` here?
A: inconclusive: 5.62 µM [inhibitor, full curve, poor fit]

Q: How did the Potency turn out when `CCOC(=O)C1CCN(C2=C(NS(=O)(=O)c3ccc(Cl)cc3)C(=O)c3ccccc3C2=O)CC1` was run?
A: inconclusive: 44.7 µM [inhibitor, partial curve, poor fit]

Q: Which Potency does the source give for `COc1ccc(S(=O)(=O)Nc2nc3ccccc3nc2Nc2cccc(OC)c2)cc1` here?
A: inconclusive: 2.51 µM [inhibitor, full curve, poor fit]

Q: Which Potency does the source give for `O=C(O)C1CCCN1/C=C/C(=O)C(F)(F)F` (configuration not stated) here?
A: inconclusive: 35.5 µM [inhibitor, single point]

Q: How did the Potency turn out when `O=C(NCc1ccccc1)N[C@H]1CO[C@H]2[C@@H]1OC[C@@H]2n1cc(-c2ccccn2)nn1` was run?
A: inconclusive: 28.2 µM [inhibitor, full curve, poor fit]

Q: How did the Potency turn out when `CNC(=O)[C@H]1O[C@@H](n2cnc3c(NCc4cccc(I)c4)nc(Cl)nc32)[C@H](O)[C@@H]1O` was run?
A: inactive and inconclusive: 44.7 µM [inhibitor, partial curve, poor fit]

Q: With `Clc1ccc(OCCn2cnc(Cl)c2Cl)cc1` as the compound, how does the Potency read?
A: inconclusive: 50.1 µM [inhibitor, partial curve, poor fit]

Q: How did the Potency turn out when `CSc1ccc(CN2CCC(C)(Oc3ccc(F)cc3)C2)cc1` (configuration not stated) was run?
A: inconclusive: 44.7 µM [inhibitor, partial curve, poor fit]

Q: Which Potency does the source give for `COCCN1CCNc2nc(COc3ccc(Cl)cc3OC)n(Cc3ccccc3)c2C1=O` here?
A: inactive

Q: `O=C(Nc1ccc(F)cc1)c1ccc2ncsc2c1` was tested. Which Potency did it give?
A: inconclusive: 31.6 µM [inhibitor, single point]

Q: With `Cn1c(=O)oc2cc(NC(=O)CCl)ccc21` as the compound, how does the Potency read?
A: inactive

Q: How did the Potency turn out when `Cc1c(Cl)cccc1NC(=S)NCCc1cccs1` was run?
A: inconclusive: 158 µM [inhibitor, partial curve, poor fit]

Q: Which Potency does the source give for `c1csc(C2Nc3ccccc3-c3nc4ccccc4n32)c1` (configuration not stated) here?
A: inactive

Q: Which Potency does the source give for `O=C(C1CCCCC1)N1C[C@@H]2OCC(=O)N(Cc3ccccn3)[C@@H]2C1` here?
A: inactive

Q: With `O=C(O)CC(C(=O)O)c1ccc(OCCCOc2ccc(C(CC(=O)O)C(=O)O)cc2)cc1` (configuration not stated) as the compound, how does the Potency read?
A: inconclusive: 31.6 µM [inhibitor, partial curve, poor fit]

Q: How did the Potency turn out when `O=C(CSCc1ccc(Cl)cc1)Nc1cc([N+](=O)[O-])ccc1O` was run?
A: inactive

Q: How did the Potency turn out when `O=C(NC1CC1)c1ccc(NC(=O)c2cc(-c3ccco3)nc3ccccc23)cc1` was run?
A: active: 10 µM

Q: How did the Potency turn out when `Cc1ccc(N/N=C/c2ccncc2)cc1` was run?
A: inconclusive: 2.51 µM [inhibitor, full curve, poor fit]

Q: With `CC(C)c1ccc2[nH]c(O)c(N=NC(=S)NCCc3ccccc3)c2c1` as the compound, how does the Potency read?
A: inactive

Q: `COc1ccc(NC(NC(=O)c2ccc(OC)cc2)C(Cl)(Cl)Cl)cc1` (configuration not stated) was tested. Which Potency did it give?
A: inconclusive: 56.2 µM [inhibitor, partial curve, poor fit]

Q: For `Cc1ncc2c(N3CC4CCC(C3)N4CC(F)(F)F)nc3ccccc3n12`, which activity change, negative = inhibition is on record?
A: inactive: -3.16% [at 6.33 µM]

Q: `C/C(=N\NC(=S)NC1CCCCC1)c1cccs1` was tested. Which Potency did it give?
A: inconclusive: 35.5 µM [inhibitor, partial curve, poor fit]

Q: How did the Potency turn out when `C#CCCC(=O)c1ccccc1/C=[N+](\[O-])c1ccccc1` was run?
A: inconclusive: 50.1 µM [inhibitor, partial curve, poor fit]

Q: `CC(NC(=O)/C=C/c1ccco1)c1nc2ccccc2n1Cc1cccc(Cl)c1` (configuration not stated) was tested. Which Potency did it give?
A: inconclusive: 50.1 µM [inhibitor, partial curve, poor fit]

Q: How did the Potency turn out when `Cc1ccccc1C(=O)Nc1cccc(C(=O)OCc2cc(=O)n3c(C)csc3n2)c1` was run?
A: inconclusive: 39.8 µM [inhibitor, partial curve]

Q: `CCOC(=O)C1=C(NC(=S)NC(=O)c2ccccc2)c2ccccc2CC1(C)CC` (configuration not stated) was tested. Which Potency did it give?
A: active: 15.8 µM

Q: How did the activity change, negative = inhibition turn out when `Cc1ccc(S(=O)(=O)N2CCN(CC(=O)N(CC(C)C)c3c(N)n(CC(C)C)c(=O)[nH]c3=O)CC2)c(C)c1` was run?
A: inconclusive: -36.2% [inhibitor]

Q: For `COc1ccc(-n2nc(C(=O)NCC(=O)N3CCCC(C)C3)c3ccccc3c2=O)cc1` (configuration not stated), which Potency is on record?
A: inconclusive: 89.1 µM [inhibitor, partial curve, poor fit]

Q: `CCCN(CC(=O)Nc1ccccc1C)C(=O)COc1c(C)cccc1C` was tested. Which Potency did it give?
A: inactive

Q: Which Potency does the source give for `COc1ccc(C2Cn3nnc(C(=O)N4CCC(C(=O)NCc5cccc(C)c5)CC4)c3CO2)cc1` (configuration not stated) here?
A: inactive

Q: For `COc1ccc(CN2C(=O)C(O)(CC(=O)c3ccccc3OC)c3ccccc32)cc1OC` (configuration not stated), which Potency is on record?
A: inactive

Q: How did the Potency turn out when `CCOC(=O)c1cc(C(C)(O)CCC=C(C)C)on1` (configuration not stated) was run?
A: inactive

Q: For `CN1CCc2c(C#N)c(NCc3ccccn3)n3cnnc3c2C1`, which Potency is on record?
A: inactive

Q: With `CN(CCN1CCOCC1)C(=O)CC1C(=O)NCCN1Cc1ccccc1F` (configuration not stated) as the compound, how does the Potency read?
A: inconclusive: 31.6 µM [inhibitor, single point]

Q: Which Potency does the source give for `Cc1cnc(C(=O)Nc2ccc(N3CCN(C(=O)OC(C)(C)C)CC3)cc2)cn1` here?
A: inactive

Q: How did the Potency turn out when `CCOC(=O)c1sc2nc(CN3CCC(C)CC3)[nH]c(=O)c2c1C` was run?
A: inconclusive: 35.5 µM [inhibitor, single point]

Q: Which Potency does the source give for `O=C(O)C(c1c[nH]c2cc(Br)ccc12)N1CCN(c2nsc3ccccc23)CC1` (configuration not stated) here?
A: inconclusive: 39.8 µM [inhibitor, partial curve, poor fit]

Q: For `Cc1ccc(NC(=O)CCC(C(=O)O)N2C(=O)c3ccccc3C2=O)cc1` (configuration not stated), which Potency is on record?
A: inactive

Q: For `CCOc1ccccc1C1C(C(=O)OC)=C(N)OC2=C1C(=O)CCC2` (configuration not stated), which Potency is on record?
A: inactive

Q: With `CC(=O)c1c(C)[nH]c(C(=O)C(C)OC(=O)c2c(F)cccc2F)c1C` (configuration not stated) as the compound, how does the Potency read?
A: inconclusive: 39.8 µM [inhibitor, partial curve, poor fit]

Q: For `CCCCCC(=O)NC(=S)NC1C2CC3CC(C2)CC1C3` (configuration not stated), which Potency is on record?
A: inconclusive: 7.94 µM [inhibitor, full curve, poor fit]

Q: For `COCCOCc1nc(C2CCN(C(=O)c3cc(C)n(C)n3)C2)no1` (configuration not stated), which Potency is on record?
A: inactive

Q: For `COc1ccc2c(c1)c(=O)oc1cc(OC(C(=O)O)c3ccccc3)ccc12` (configuration not stated), which Potency is on record?
A: inconclusive: 50.1 µM [inhibitor, partial curve, poor fit]

Q: How did the Potency turn out when `COc1ccc(Cl)cc1C(=O)OCC(=O)N1CCCC(C)C1` (configuration not stated) was run?
A: inconclusive: 50.1 µM [inhibitor, full curve, poor fit]

Q: How did the Potency turn out when `CNc1nc2c(c(=O)[nH]c(=O)n2C)n1Cc1cccc(Br)c1` was run?
A: inconclusive: 50.1 µM [inhibitor, full curve, poor fit]

Q: How did the Potency turn out when `O=C(COc1ccccc1)NCC(=O)N/N=C/c1cc(Br)ccc1OCc1ccccc1` was run?
A: inactive

From PubChem BioAssay AID1671190 (National Center for Advancing Translational Sciences (NCATS), 2021)
